According to PubChem BioAssay AID1671190 (National Center for Advancing Translational Sciences (NCATS), 2021):
Values joined by “and” are separate entries in the source; they are usually repeats but may differ in a detail not shown here. Identical values can stand only once. About 6,100 (1.1%) of roughly 580,000 compounds were called active. This list was built around the results that the source calls inconclusive (neither active nor inactive); the mix of calls is not that of the screen. Calls follow the shape of the dose curve; as a rule, active = well fitted inhibition curve with a large enough effect; inconclusive = small, poorly fitted or top-dose-only effect, or another doubt; inactive = no such curve, though single readings can be large or run the other way. Potencies beside an inconclusive call are fits to weak or partial responses and may not hold up.

Protein sequences, listed by entry. Tags and fused reporters are not part of them. Lines headed by an entry give the natural chain unless they say otherwise; changes in a name come on top.
UniProt P18054: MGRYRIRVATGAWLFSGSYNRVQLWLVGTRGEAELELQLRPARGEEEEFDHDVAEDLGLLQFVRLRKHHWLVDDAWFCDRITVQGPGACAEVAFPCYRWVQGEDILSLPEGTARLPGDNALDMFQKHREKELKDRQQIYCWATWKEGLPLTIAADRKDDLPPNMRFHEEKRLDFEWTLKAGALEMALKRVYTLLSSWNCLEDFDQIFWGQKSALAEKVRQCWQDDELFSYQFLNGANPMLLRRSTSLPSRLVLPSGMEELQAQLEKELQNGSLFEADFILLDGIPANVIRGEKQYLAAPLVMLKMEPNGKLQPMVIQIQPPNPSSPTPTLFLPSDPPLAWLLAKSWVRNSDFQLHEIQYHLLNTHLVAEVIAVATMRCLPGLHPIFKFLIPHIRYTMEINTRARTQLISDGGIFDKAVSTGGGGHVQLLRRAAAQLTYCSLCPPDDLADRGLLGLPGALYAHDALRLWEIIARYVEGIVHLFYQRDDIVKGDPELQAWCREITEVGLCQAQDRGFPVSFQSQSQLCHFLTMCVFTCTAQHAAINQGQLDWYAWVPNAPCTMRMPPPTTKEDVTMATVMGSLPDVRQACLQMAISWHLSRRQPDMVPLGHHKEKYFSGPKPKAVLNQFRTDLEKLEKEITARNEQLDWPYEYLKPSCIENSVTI

molecular target: Polyunsaturated fatty acid lipoxygenase ALOX12 (Homo sapiens) (UniProt P18054); experiment: Primary qHTS assay for inhibitors of human arachidonate 12S-lipoxygenase (ALOX12): Round 2; conditions: purified 12hLO, xylenol orange hydroperoxide absorbance; activity change, negative = inhibition: at 108 µM (top of the series) unless noted
Outline: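 Purified human 12hLO at 150 nM in 25 mM Hepes, 0.01% Triton X-100, pH 7.0, preincubated 15 min at room temperature with compound. Reaction started with 40 uM arachidonic acid, 30 min at room temperature. Hydroperoxide measured by Fe-xylenol orange, 573/405 nm absorbance ratio.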
% is scaled to controls: 0 for no effect and ±100 for the full control effect; potency is read from the fitted curve at half-maximal effect.

SMILES	Potency	activity change, negative = inhibition
COc1ccc(-c2nc(CS(=O)CC(=O)NCCc3ccc(Cl)cc3)c(C)o2)cc1OC (stereo not drawn)	inconclusive: 100 µM [inhibitor, single point]	–
CC(C)(C)S(=O)(=O)c1cnc(N2CCCC2)nc1N	inconclusive: 35.5 µM [inhibitor, single point]	–
O=C(Oc1ccccc1)c1ccc(NC(=O)c2ccco2)cc1	inactive	–
COc1cccc(-c2cc(C(=O)NCCc3n[nH]c(=O)n3C)[nH]n2)c1	inactive	–
O=C(Nc1cccs1)O[C@H]1COCCN(c2nc3ccccc3o2)C1	inactive	–
Cc1cccc(Nc2nc(N)nc(CN3CCN(c4ccccc4)CC3)n2)c1	inactive	–
Cc1cccc(N2CCN(C(=O)Cn3c(-c4cccs4)cc4ccccc43)CC2)c1C	inconclusive: 112 µM [inhibitor, partial curve, poor fit]	–
Fc1cc2nccnc2cc1N1CCSCC1	inactive	–
CC(=O)Nc1cc(-c2cccc(C(=O)N(C)C)c2)cn2c(-c3ccc(C(C)=O)cc3)cnc12	inconclusive: 50.1 µM [inhibitor, partial curve, poor fit]	–
COc1cccc(CNC(=S)Nc2ccc(Cl)cc2C)c1	inconclusive: 50.1 µM [inhibitor, partial curve, poor fit]	–
O=C(Nc1cccc(CO)c1)c1cccc2cccnc12	inactive	–
CCCN(C)C(=O)c1onc(-c2ccc(F)cc2)c1[C@H](C)O	inactive	–
CCCS(=O)(=O)N1CC(=O)N(c2ccc(C)c(Cl)c2)C(C)(C(=O)NC2CCCCCC2)C1 (stereo not drawn)	inconclusive: 56.2 µM [inhibitor, partial curve, poor fit]	–
COc1ccc(S(=O)(=O)N2CCN(Cc3ncc(-c4ccc(F)cc4)o3)CC2)cc1	inactive	–
Fc1ccccc1NC(=S)Nc1cccc2cnccc12	inactive	–
CCN(CC)S(=O)(=O)c1ccc2[nH]cc(C(=O)NCCC3=CCCCC3)c(=O)c2c1	inconclusive: 79.4 µM [inhibitor, single point]	–
Fc1ccc(CN2CC[C@H](c3nc4cc(Cl)ccc4o3)C2)cc1F	inconclusive: 79.4 µM [inhibitor, partial curve]	–
COc1ccc(/C(O)=C2/C(=O)C(=O)N(CCCN3CCOCC3)C2c2ccc(C)cc2)cc1 (stereo not drawn)	inconclusive: 39.8 µM [inhibitor, partial curve, poor fit]	–
CC(C)CCN1C(=O)c2ccc(C(=O)Nc3ccc(Br)cc3C(=O)O)cc2C1=O	inconclusive: 35.5 µM [inhibitor, partial curve, poor fit]	–
C=CCn1c(O)c(N=NC(=O)c2ccccc2NS(=O)(=O)c2cccs2)c2ccccc21	inactive	–
O=C(NCCCCc1ccccc1)C1CC(c2ccc([N+](=O)[O-])cc2)=NO1 (stereo not drawn)	–	inconclusive: -30.9% [inhibitor]
Cc1ccc2c(CSc3ncn[nH]3)cc(=O)oc2c1	inconclusive: 39.8 µM [inhibitor, partial curve, poor fit]	–
C=CCn1c(CC(=O)OC)csc1=Nc1ccc(C(C)=O)cc1	inactive	–

SMILES	Potency	activity change, negative = inhibition
C[S+](=O)([O-])c1ccc(-c2nc(C(=O)NCc3ccc4c(c3)OCO4)n3ccccc23)cc1	inconclusive: 20 µM [inhibitor, full curve, poor fit]	–
COc1ccc(CCNS(=O)(=O)c2ccc3c(c2)OCCO3)cc1	inconclusive: 100 µM [inhibitor, partial curve, poor fit]	–
O=c1[nH]c(CN2CCN(c3ccc(O)cc3)CC2)nc2scc(-c3ccc(Cl)cc3)c12	inconclusive: 44.7 µM [inhibitor, partial curve, poor fit]	–
CCN(Cc1ccccc1)C(=O)CC1CCCN(c2cnn(CC3CC3)c(=O)c2)C1 (stereo not drawn)	inactive	–
O=C(O)C1(c2ccc(Br)cc2)CCCCC1	inactive	–
Cc1cc(C(=O)NCC2(COc3ccccc3)C[C@@H](O)[C@@H](O)C2)n(C)n1 (stereo partly drawn)	inconclusive: 56.2 µM [inhibitor, single point]	–
CC(C)NC(=O)c1ccc(-c2ccc(F)cc2)o1	inactive	–
CCOc1ccc2nc(NC(=O)c3cccc(-c4cc5ccccc5oc4=O)c3)sc2c1	inconclusive: 11.2 µM [inhibitor, full curve, poor fit]	–
CC1CC1C(=O)OCc1cc(=O)n2cc(Br)ccc2n1 (stereo not drawn)	inactive	–
COCCN1C(=O)[C@H]2CN(Cc3cc(Br)ccc3F)C[C@H]2C1=O	inactive	–
COc1ccc(Nc2cc3c(cn2)NCCN(Cc2ccccc2)C3)cc1	inconclusive: 11.2 µM [inhibitor, full curve]	–
Cc1ccc(N2CC(C(=O)Nc3nnc(SCC(N)=O)s3)CC2=O)cc1C (stereo not drawn)	inconclusive: 44.7 µM [inhibitor, partial curve, poor fit]	–
c1cn2cc(-c3ccc4c(c3)OCO4)nc2s1	inconclusive: 44.7 µM [inhibitor, partial curve]	–
O=C(CN1CCN(C(=O)c2ccc3ccccc3c2)CC1)Nc1ccccc1Cl	inconclusive: 100 µM [inhibitor, single point]	–
c1ccc(NNC2=NCCCCC2)cc1	inconclusive: 100 µM [inhibitor, partial curve, poor fit]	–
COc1ccc(NC(=O)c2ncoc2-c2ccc(C)o2)cc1OC	inconclusive: 89.1 µM [inhibitor, partial curve, poor fit]	–
CC(C)(C)c1ccc(S(=O)(=O)N2CCN(CC(O)COCC3CCCO3)CC2)cc1 (stereo not drawn)	inactive	–
Cc1ccc(S(=O)(=O)N2C[C@H]3N(C(=O)OC(C)C)N(C(=O)OC(C)C)C[C@H](OC(=O)NCc4ccccc4F)[C@@]3(O)C2)cc1	inconclusive: 44.7 µM [inhibitor, single point]	–
Cc1ccc(C(=O)Nc2nc(=O)n(C(=O)c3ccccc3C)s2)cc1	inconclusive: 50.1 µM [inhibitor, single point]	–
Cc1ccc(S(=O)(=O)NC(C(=O)N2CCOCCOCCOCCOCC2)c2ccccc2)cc1 (stereo not drawn)	inconclusive: 89.1 µM [inhibitor, single point]	–
COc1nc2ccccc2nc1N1CCC(C(=O)NCc2cccc(C)c2)CC1	inactive	–
NS(=O)(=O)c1ccc(N2C(=O)C(=O)/C(=C(/O)c3ccccc3)C2c2ccc(Cl)cc2)cc1 (stereo not drawn)	inconclusive: 39.8 µM [inhibitor, partial curve, poor fit]	–
FC(F)(F)c1cccc(OCCOCCn2cncn2)c1	inconclusive: 0.316 µM [inhibitor, full curve, poor fit]	–

SMILES	Potency	activity change, negative = inhibition
COc1ccc(CCNC(=O)Cn2nc(-c3cccs3)c3ccccc3c2=O)cc1	inconclusive: 44.7 µM [inhibitor, partial curve, poor fit]	–
O=c1cc(-c2ccncc2)oc2c(-c3ccccc3O)nccc12	inconclusive: 11.2 µM [inhibitor, full curve]	–
CCC(=O)N1c2ccc(S(=O)(=O)CCC(=O)Nc3ccc(OC)cc3OC)cc2CC1C (stereo not drawn)	inconclusive: 28.2 µM [inhibitor, partial curve, poor fit] and inconclusive: 7.08 µM [inhibitor, partial curve, poor fit]	–
CCOc1ccc(C(C)NC(=S)NC2CCCCC2)cc1 (stereo not drawn)	inconclusive: 44.7 µM [inhibitor, partial curve, poor fit]	–
CN1CC(=O)N(c2ccccc2)Cc2c(NC3CCC3)ncnc21	inactive	–
COc1ccc(-c2nn(CCC(=O)O)cc2/C=C2\SC(N)=NC2=O)cc1OC	inactive	–
CCN(CC)c1ccc(NC(=O)c2cnc3ccccc3n2)cc1	inconclusive: 3.16 µM [inhibitor, full curve, poor fit]	–
COc1ccc(S(=O)(=O)n2nc(C)c(S(=O)(=O)N3CCCCC3)c2C)cc1	inconclusive: 7.08 µM [inhibitor, full curve, poor fit]	–
CC(C)COc1ccc(C(=O)Nc2ccc(NC(=O)c3ccco3)c(Cl)c2)cc1	inactive	–
C[C@@H](CN=[N+]=[N-])CN1CC[C@H](C(C)(C)C)CCC1=O	inactive	–
Cc1nc(-c2cccc(S(=O)(=O)N3CCOCC3)c2)cs1	inconclusive: 5.62 µM [inhibitor, partial curve, poor fit]	–
COc1ccc(-c2nc(SCC(=O)NC3CCCC3)c(-c3ccc(OC)cc3)[nH]2)cc1	inactive	–
CCOCCCNC(=O)C(c1ccc(C)cc1)N(Cc1cccs1)C(=O)CCc1cc(C(C)(C)C)c(O)c(C(C)(C)C)c1 (stereo not drawn)	inconclusive: 28.2 µM [inhibitor, partial curve, poor fit]	–
Cc1cccc(C(=O)NNC(=O)c2ccccc2-n2cccc2)c1	inactive	–
Cc1ccc(C(=O)Nc2ccc3c(c2)CCC3)cc1	inactive	–
COc1ccc(S(=O)(=O)N2CCC(c3nc4ccccc4[nH]3)CC2)cc1	inactive	–
NC(=O)c1cc(S(=O)(=O)Nc2ccc(OC(F)(F)F)cc2)cs1	inconclusive: 56.2 µM [inhibitor, partial curve, poor fit]	–
O=C1CC(c2ccccc2)N(Cc2ccc(F)c(F)c2)CCCCCN1 (stereo not drawn)	inactive	–
C/C(=N/Nc1ccc([N+](=O)[O-])cc1)c1ccc(Cl)cc1	inconclusive: 141 µM [inhibitor, single point]	–
CCn1c(C)c(/C=C/c2cc[n+](C)cc2)c2ccccc21	inconclusive: 12.6 µM [inhibitor, full curve, poor fit]	–
COc1ccc(N/C(C)=C2/C(=O)C(=O)N(CCO)C2c2ccc(Br)cc2)cc1 (stereo not drawn)	inconclusive: 35.5 µM [inhibitor, partial curve, poor fit]	–
CS(=O)c1ccc(C(=O)NCc2ccc(-c3nc4ccccc4s3)o2)cc1 (stereo not drawn)	inconclusive: 6.31 µM [inhibitor, partial curve, poor fit]	–
